Article PMC7616277

Chains of the proteins cited; added tags and fusions are not shown. Lines headed by an entry give the natural chain unless they say otherwise; changes in a name come on top.
UniProt P48484: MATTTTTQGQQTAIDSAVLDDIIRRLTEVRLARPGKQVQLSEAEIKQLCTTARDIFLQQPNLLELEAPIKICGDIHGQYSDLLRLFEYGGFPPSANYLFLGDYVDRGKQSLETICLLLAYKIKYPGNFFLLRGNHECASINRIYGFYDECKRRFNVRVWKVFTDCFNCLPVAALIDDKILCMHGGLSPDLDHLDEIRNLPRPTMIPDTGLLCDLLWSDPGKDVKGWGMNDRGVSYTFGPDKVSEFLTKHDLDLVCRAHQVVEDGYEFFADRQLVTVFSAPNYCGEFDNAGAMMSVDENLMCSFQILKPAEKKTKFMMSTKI
UniProt Q94F49: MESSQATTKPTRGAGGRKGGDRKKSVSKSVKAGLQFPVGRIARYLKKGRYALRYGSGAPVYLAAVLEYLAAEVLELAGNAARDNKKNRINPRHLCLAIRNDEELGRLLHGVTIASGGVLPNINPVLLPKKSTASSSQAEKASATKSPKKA

T1: APRF1-3xFLAG (ANTHESIS PROMOTING FACTOR 1, FLAG-tagged) (Arabidopsis thaliana) (UniProt Q9LYK6)
T1 sequence: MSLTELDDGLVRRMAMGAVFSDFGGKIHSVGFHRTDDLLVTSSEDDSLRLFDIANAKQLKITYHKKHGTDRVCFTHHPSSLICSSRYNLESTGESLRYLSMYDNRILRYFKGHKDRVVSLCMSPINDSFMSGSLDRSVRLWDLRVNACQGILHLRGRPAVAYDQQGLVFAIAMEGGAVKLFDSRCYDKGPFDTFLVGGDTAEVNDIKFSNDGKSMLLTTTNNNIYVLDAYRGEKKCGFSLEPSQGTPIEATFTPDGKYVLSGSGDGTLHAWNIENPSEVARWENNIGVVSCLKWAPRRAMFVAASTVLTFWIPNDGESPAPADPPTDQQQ

B1: FLOWERING LOCUS D (FLD) (enzyme, UniProt Q9CAE3 1-789)
chain: MVSFSAPKKRRRGRSQRSMSSLNSLPVPNVGLLPGNSNFVSSSASSSGRFNVEVVNGSNQTVKSYPGIGDEIITINKEATTEALLALTAGFPADSLTEEEIEFGVVPIVGGIEQVNYILIRNHIISKWRENISSWVTKEMFLNSIPKHCSSLLDSAYNYLVTHGYINFGIAQAIKDKFPAQSSKSSVIIVGAGLSGLAAARQLMRFGFKVTVLEGRKRPGGRVYTKKMEANRVGAAADLGGSVLTGTLGNPLGIIARQLGSSLYKVRDKCPLYRVDGKPVDPDVDIKVEVAFNQLLDKASKLRQLMGDVSMDVSLGAALETFRQVSGNDVATEEMGLFNWHLANLEYANAGLVSKLSLAFWDQDDPYDMGGDHCFLPGGNGRLVQALAENVPILYEKTVQTIRYGSNGVKVTAGNQVYEGDMVLCTVPLGVLKNGSIKFVPELPQRKLDCIKRLGFGLLNKVAMLFPYVFWSTDLDTFGHLTEDPNYRGEFFLFYSYAPVAGGALLIALVAGEAAHKFETMPPTDAVTRVLHILRGIYEPQGINVPDPLQTVCTRWGGDPFSLGSYSNVAVGASGDDYDILAESVGDGRLFFAGEATTRRYPATMHGAFVTGLREAANMAQSAKARGIRKRIDRNPSRNAHSCAILLADLFRDPDLEFGSFCIIFSRRNPDPKSPAILRVTLSEPRKRNEDPKADQHSNKILFQQLQSHFNQQQQIQVYTLLTRQQALDLREVRGGDEKRLYYLCETLGVKLVGRKGLGVGADSVIASIKAERTGRKLPSSSTSGTKSG
B2: C-terminal domain phosphatase-like 3 (CPL3) (enzyme, UniProt Q8LL04 1-1241)
chain: MLVARSGCSRTLIRMGNDENLMVMVDVEEGEIPDSVNTEIEVKHKSTTTTADVGGDVDVGVVAGGRGGGGGGSNGNSRVWTMEELISQYPAYRPYANSGLSNLAWARAVQNKPFNEGLVMDYEPRESDKIVIEDSDDEKEEGELEEGEIDLVDNASDDNLVEKDTESVVLISADKVEDDRILKERDLEKKVKLIRGVLESTSLVEAQTGFEGVCSRILGALESLRELVSDNDDFPKRDTLVQLSFASLQTINYVFCSMNNISKERNKETMSRLLTLVNDHFSQFLSFNQKNEIETMNQDLSRSAIAVFAGTSSEENVNQMTQPSNGDSFLAKKLTSESTHRGAAYLRSRLPMLPLLDLHKDHDADSLPSPTRETTPSLPVNGRHTMVRPGFPVGRESQTTEGAKVYSYESDARKAVSTYQQKFGLNSVFKTDDLPSPTPSGEPNDGNGDVGGEVSSSVVKSSNPGSHLIYGQDVPLPSNFNSRSMPVANSVSSTVPPHHLSIHAISAPTASDQTVKPSAKSRDPRLRLAKPDAANVTIYSYSSGDARNLSKVELSADLVNPRKQKAADEFLIDGPAWKRQKSDTDAPKAAGTGGWLEDTESSGLLKLESKPRLIENGVTSMTSSVMPTSAVSVSQKVRTASTDTASLQSLLKDIAVNPTMLLNLLKMGERQKVPEKAIQKPMDPRRAAQLPGSSVQPGVSTPLSIPASNALAANSLNSGVLQDSSQNAPAAESGSIRMKPRDPRRILHGSTLQRTDSSMEKQTKVNDPSTLGTLTMKGKAEDLETPPQLDPRQNISQNGTSKMKISGELLSGKTPDFSTQFTKNLKSIADMVVVSQQLGNPPASMHSVQLKTERDVKHNPSNPNAQDEDVSVSAASVTAAAGPTRSMNSWGDVEHLFEGYDDIQRVAIQRERVRRLEEQNKMFASQKLSLVLDIDHTLLNSAKFNEVESRHEEILRKKEEQDREKPYRHLFRFLHMGMWTKLRPGIWNFLEKASKLYELHLYTMGNKLYATEMAKLLDPKGVLFNGRVISKGDDGDPLDGDERVPKSKDLEGVMGMESSVVIIDDSVRVWPQHKMNLIAVERYLYFPCSRRQFGLLGPSLLELDRDEVPEEGTLASSLAVIEKIHQNFFSHTSLDEVDVRNILASEQRKILAGCRIVFSRIIPVGEAKPHLHPLWQTAEQFGAVCTTQVDEHVTHVVTNSLGTDKVNWALTRGRFVVHPGWVEASAFLYQRANENLYAINP
B3: Cstf64 (protein, UniProt Q9M9G6 1-461)
chain: MASSSSQRRCVFVGNIPYDATEEQLREICGEVGPVVSFRLVTDRETGKPKGYGFCEYKDEETALSARRNLQSYEINGRQLRVDFAENDKGTDKTRDQSQGGPGLPSTTTVTESQKQIGGPVDSNMHQPVGLHLATTAASVIAGALGGPQVGSQFTQSNLQVPASDPLALHLAKMSRSQLTEIISSIKLMATQNKEHARQLLVSRPQLLKAVFLAQVMLGIVSPQVLQSPNIVQAPSHMTGSSIQDAQLSGQNLLPPLAQRSQQLSRAPHSQYPVQQSSKQPFSQIPQLVAQPGPSSVNPPPRSQVKVENAPFQRQQVVPASTNIGYSSQNSVPNNAIQPSQVPHQALPNSVMQQGGQTVSLNFGKRINEGPPHQSMNRPSKMMKVEDRRTTSLPGGHVSNSMLPNQAQAPQTHISPDVQSTLLQQVMNLTPEQLRLLTPEQQQEVLKLQQALKQDHMMQPS
B4: CPSF100 (protein, UniProt Q9LKF9 1-739)
chain: MGTSVQVTPLCGVYNENPLSYLVSIDGFNFLIDCGWNDLFDTSLLEPLSRVASTIDAVLLSHPDTLHIGALPYAMKQLGLSAPVYATEPVHRLGLLTMYDQFLSRKQVSDFDLFTLDDIDSAFQNVIRLTYSQNYHLSGKGEGIVIAPHVAGHMLGGSIWRITKDGEDVIYAVDYNHRKERHLNGTVLQSFVRPAVLITDAYHALYTNQTARQQRDKEFLDTISKHLEVGGNVLLPVDTAGRVLELLLILEQHWSQRGFSFPIYFLTYVSSSTIDYVKSFLEWMSDSISKSFETSRDNAFLLRHVTLLINKTDLDNAPPGPKVVLASMASLEAGFAREIFVEWANDPRNLVLFTETGQFGTLARMLQSAPPPKFVKVTMSKRVPLAGEELIAYEEEQNRLKREEALRASLVKEEETKASHGSDDNSSEPMIIDTKTTHDVIGSHGPAYKDILIDGFVPPSSSVAPMFPYYDNTSEWDDFGEIINPDDYVIKDEDMDRGAMHNGGDVDGRLDEATASLMLDTRPSKVMSNELIVTVSCSLVKMDYEGRSDGRSIKSMIAHVSPLKLVLVHAIAEATEHLKQHCLNNICPHVYAPQIEETVDVTSDLCAYKVQLSEKLMSNVIFKKLGDSEVAWVDSEVGKTERDMRSLLPMPGAASPHKPVLVGDLKIADFKQFLSSKGVQVEFAGGGALRCGEYVTLRKVGPTGQKGGASGPQQILIEGPLCEDYYKIRDYLYSQFYLL
B5: LU… (LD) (protein, UniProt Q38796 1-953)
chain: MDAFKEEIEIGSSVESLMELLDSQKVLFHSQIDQLQDVVVAQCKLTGVNPLAQEMAAGALSIKIGKRPRDLLNPKAVKYLQAVFAIKDAISKRESREISALFGITVAQVREFFVTQKTRVRKQVRLSREKVVMSNTHALQDDGVPENNNATNHVEPVPLNSIHPEACSISWGEGETVALIPPEDIPPDISDSDKYFVENIFSLLRKEETFSGQVKLMEWIMQIQDASVLIWFLSKGGVLILTTWLSQAASEEQTSVLLLILKVLCHLPLHKASPENMSAILQSVNGLRFYRISDISNRAKGLLSRWTKLFAKIQAMKKQNRNSSQIDSQSQLLLKQSIAEIMGDSSNPEDILSLSNGKSENVRRIESSQGPKLLLTSADDSTKKHMLGSNPSYNKERRKVQMVEQPGQKAAGKSPQTVRIGTSGRSRPMSADDIQKAKMRALYMQSKNSKKDPLPSAIGDSKIVAPEKPLALHSAKDSPPIQNNEAKTEDTPVLSTVQPVNGFSTIQPVNGPSAVQPVNGPLAVQPVNGPSALQPVNGPSAVIVPVQADEIKKPSTPPKSISSKVGVMMKMSSQTILKNCKRKQIDWHVPPGMELDELWRVAAGGNSKEADVQRNRNRRERETTYQSLQTIPLNPKEPWDREMDYDDSLTPEIPSQQPPEESLTEPQDSLDERRIAAGAATTSSSLSSPEPDLELLAALLKNPDLVYALTSGKPSNLAGQDMVKLLDVIKTGAPNSSSSSNKQVEERVEVSLPSPTPSTNPGMSGWGQEGIRNPFSRQNQVGTAVARSGTQLRVGSMQWHQTNEQSIPRHAPSAYSNSITLAHTEREQQQYMQPKLHHNLHFQQQQQQPISTTSYAVREPVGQMGTGTSSSWRSQQSQNSYYSHQENEIASASQVTSYQGNSQYMSSNPGYESWSPDNSPSRNQLNMRGQQQQASRKHDSSTHPYWNQNKRWR

molecular target: T1, APRF1-3xFLAG (ANTHESIS PROMOTING FACTOR 1, FLAG-tagged) (Arabidopsis thaliana); test: affinity purification with mass spectrometry; crosslinked nuclear immunoprecipitation and mass spectrometry (CLNIP-MS): 10-day-old APRF1pro:APRF1-3xFLAG seedlings against Col-0 control, 1% formaldehyde crosslinking, purified nuclei, Benzonase, anti-FLAG antibody on M-270 epoxy Dynabeads overnight at 4°C, three biological replicates

Row | binding | Molecule
1 | binds | TYPE ONE SERINE/THREONINE PROTEIN PHOSPHATASE 4 (TOPP4) (from UniProt P48484 1-321) (enzyme)
2 | no binding | INT9 (Arabidopsis homolog of Integrator subunit 9)
3 | binds | histone H2A.W.7 (from UniProt Q94F49 1-150)
4 | no binding | ESP4
5 | no binding | INT7 (Arabidopsis homolog of Integrator subunit 7)
6 | no binding | INT11 (Arabidopsis homolog of Integrator subunit 11)
7 | no binding | Ssu72 (Arabidopsis) (enzyme)
8 | binds | B1
9 | binds | B2
10 | no binding | B3
11 | binds | B4
12 | binds | B5

Results are given in words; binding and its absence hold for the method and conditions named. In cells and extracts the contact can be indirect. A yes stands for co-enrichment or nearness to the bait. Other partners may have been found. A no says only that the protein was not detected with the bait. Where a sequence is shown, tags or fusion partners need not be part of it.
